The exact form of at least one protein or probe is not confirmed. For some assays here: A negative result means that nothing was seen under these conditions. Where a protein sequence is shown, tags need not be part of it.
Columns and labels:
McMYB10 (MBP fusion) [1] = molecular target: T1, McMYB10 (MBP fusion) (UniProt J7H7H0); experiment: competition with a labelled probe; conditions: 1000-fold mutant probe against biotin probe, no evidence of competition; LightShift Chemiluminescent EMSA Kit per manufacturer, about 10 ug purified McMYB10 per reaction; temperature not stated; recombinant protein; protein details: MBP (pMAL-C2X)
T1 sequence (looked up, limits assumed): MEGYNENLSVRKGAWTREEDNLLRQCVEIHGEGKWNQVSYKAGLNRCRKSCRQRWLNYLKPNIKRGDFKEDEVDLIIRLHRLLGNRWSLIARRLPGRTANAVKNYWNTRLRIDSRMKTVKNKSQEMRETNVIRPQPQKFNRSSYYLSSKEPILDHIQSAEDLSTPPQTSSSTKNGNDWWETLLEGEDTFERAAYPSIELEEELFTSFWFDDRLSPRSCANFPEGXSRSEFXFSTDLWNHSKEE

McMYB10 (MBP fusion) [2] = molecular target: T1, McMYB10 (MBP fusion); experiment: EMSA; conditions: unlabelled probe (10- to 1000-fold) competes; LightShift Chemiluminescent EMSA Kit per manufacturer, about 10 ug purified McMYB10 per reaction; temperature not stated; recombinant protein; protein details: MBP (pMAL-C2X); label: biotin (labelled probe), unlabelled as competitor

Sequence | binding result (McMYB10 (MBP fusion) [1]) | binding result (McMYB10 (MBP fusion) [2])
GCTCATCTCAAATTTTTGGGTGCCAATCCATGATTGGTTAGCTGG (double strand) [mProbe] | no binding | –
GCTCCTCCCAAATTTTTGGGCAGTTATCCATGGGTGGTGCGCTGG (double strand) [proMcCOP1 Probe (MBS and Sp1)] | – | binds

— publication PMC5994411
